Data reported in the supplement of paper PMC10849652.
Some of the results follow.

Protein sequences, listed by entry. Tags and fused reporters are not part of them. Lines headed by an entry give the natural chain unless they say otherwise; changes in a name come on top.
UniProt Q9BT73: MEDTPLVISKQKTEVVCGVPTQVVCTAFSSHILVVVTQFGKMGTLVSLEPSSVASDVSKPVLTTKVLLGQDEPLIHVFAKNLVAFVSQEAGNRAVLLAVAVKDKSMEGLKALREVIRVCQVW
UniProt O43242, whole entry, looked up: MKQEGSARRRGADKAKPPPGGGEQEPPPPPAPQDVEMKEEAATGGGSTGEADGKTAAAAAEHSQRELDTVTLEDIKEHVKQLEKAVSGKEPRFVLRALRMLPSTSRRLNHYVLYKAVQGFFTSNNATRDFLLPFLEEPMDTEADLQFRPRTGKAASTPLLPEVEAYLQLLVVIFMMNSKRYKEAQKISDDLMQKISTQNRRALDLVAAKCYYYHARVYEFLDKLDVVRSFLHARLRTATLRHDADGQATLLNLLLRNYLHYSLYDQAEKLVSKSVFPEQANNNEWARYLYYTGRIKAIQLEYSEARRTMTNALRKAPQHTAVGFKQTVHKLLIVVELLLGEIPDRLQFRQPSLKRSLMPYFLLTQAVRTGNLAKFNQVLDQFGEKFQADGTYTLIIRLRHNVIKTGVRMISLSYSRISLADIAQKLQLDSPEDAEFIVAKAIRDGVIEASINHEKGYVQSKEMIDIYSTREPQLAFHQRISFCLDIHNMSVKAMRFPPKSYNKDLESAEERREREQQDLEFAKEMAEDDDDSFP
UniProt P48556: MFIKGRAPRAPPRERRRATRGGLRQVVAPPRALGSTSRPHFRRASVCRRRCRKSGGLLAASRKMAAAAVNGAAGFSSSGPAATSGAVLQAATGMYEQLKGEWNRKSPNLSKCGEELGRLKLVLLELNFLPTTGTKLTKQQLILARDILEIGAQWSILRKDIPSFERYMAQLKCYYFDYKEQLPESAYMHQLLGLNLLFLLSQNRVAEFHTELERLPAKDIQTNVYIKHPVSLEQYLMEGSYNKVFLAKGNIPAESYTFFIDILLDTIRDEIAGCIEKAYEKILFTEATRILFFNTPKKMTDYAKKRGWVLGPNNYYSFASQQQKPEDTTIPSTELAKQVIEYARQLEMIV
UniProt Q06323: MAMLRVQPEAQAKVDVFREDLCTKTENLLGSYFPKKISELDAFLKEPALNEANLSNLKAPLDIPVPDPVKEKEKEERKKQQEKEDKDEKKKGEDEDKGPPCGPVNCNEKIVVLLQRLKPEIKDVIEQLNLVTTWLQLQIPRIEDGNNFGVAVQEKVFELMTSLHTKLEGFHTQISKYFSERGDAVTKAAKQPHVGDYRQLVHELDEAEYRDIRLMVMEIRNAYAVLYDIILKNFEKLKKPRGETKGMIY
UniProt O00487, whole entry, looked up: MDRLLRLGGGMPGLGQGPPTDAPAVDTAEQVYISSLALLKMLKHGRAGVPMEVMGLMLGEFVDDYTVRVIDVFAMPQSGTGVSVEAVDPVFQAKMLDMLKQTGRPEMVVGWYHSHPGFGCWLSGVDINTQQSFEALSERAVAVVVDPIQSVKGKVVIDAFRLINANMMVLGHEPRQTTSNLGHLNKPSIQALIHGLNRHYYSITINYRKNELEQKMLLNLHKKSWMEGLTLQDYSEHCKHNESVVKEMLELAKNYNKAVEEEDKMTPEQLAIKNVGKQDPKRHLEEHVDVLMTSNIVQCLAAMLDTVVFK
UniProt Q9P2W1: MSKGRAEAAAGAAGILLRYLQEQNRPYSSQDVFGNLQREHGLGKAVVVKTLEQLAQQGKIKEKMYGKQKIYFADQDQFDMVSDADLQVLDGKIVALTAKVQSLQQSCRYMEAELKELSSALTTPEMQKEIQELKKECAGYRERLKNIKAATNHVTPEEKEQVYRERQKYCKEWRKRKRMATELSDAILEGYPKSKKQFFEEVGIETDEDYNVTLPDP
UniProt O00233: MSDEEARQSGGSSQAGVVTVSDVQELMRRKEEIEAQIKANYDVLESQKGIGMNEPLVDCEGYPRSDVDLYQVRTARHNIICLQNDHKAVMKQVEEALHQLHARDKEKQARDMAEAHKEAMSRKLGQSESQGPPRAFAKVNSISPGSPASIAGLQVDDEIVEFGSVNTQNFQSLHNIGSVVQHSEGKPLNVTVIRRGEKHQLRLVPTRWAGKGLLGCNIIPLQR
UniProt Q03393: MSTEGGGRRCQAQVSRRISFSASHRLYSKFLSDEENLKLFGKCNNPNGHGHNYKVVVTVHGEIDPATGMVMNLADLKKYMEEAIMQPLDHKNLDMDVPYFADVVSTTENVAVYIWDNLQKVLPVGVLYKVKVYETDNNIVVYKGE
UniProt P07602: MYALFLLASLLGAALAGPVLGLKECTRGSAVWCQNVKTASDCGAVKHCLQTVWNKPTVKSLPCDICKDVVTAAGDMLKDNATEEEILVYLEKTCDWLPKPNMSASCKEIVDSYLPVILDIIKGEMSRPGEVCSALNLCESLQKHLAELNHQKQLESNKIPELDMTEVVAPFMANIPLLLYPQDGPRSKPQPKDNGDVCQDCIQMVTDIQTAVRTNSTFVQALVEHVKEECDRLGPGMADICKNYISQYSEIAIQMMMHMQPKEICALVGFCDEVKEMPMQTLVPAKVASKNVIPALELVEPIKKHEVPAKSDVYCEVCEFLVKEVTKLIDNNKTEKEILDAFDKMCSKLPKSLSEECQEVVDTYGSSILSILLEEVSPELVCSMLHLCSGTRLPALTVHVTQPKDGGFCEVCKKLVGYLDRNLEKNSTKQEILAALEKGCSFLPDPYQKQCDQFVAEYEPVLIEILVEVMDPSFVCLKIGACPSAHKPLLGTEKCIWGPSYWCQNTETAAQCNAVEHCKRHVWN
UniProt P26599: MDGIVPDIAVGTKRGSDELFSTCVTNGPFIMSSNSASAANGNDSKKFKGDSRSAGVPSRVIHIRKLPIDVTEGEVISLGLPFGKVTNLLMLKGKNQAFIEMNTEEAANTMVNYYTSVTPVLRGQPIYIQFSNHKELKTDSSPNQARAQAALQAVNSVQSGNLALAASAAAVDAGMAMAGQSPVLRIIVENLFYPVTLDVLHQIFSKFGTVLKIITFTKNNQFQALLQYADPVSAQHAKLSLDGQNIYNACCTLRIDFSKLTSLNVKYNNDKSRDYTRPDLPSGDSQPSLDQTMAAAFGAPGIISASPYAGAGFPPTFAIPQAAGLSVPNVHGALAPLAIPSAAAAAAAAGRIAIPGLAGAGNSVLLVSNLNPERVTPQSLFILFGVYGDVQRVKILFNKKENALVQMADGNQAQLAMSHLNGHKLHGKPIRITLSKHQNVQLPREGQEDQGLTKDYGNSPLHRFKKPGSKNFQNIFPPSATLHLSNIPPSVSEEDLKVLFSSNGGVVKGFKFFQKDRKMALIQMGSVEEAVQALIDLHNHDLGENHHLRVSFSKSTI
UniProt P55036: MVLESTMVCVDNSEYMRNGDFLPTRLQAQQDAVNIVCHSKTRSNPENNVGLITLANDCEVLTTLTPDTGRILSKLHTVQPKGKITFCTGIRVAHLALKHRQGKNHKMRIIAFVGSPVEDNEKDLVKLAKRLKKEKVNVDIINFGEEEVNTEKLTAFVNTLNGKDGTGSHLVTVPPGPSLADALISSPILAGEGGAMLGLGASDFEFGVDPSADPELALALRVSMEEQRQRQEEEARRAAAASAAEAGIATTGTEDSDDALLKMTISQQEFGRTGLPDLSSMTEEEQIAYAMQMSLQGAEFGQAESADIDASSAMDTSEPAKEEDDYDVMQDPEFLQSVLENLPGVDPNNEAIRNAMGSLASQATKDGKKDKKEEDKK
UniProt P28074: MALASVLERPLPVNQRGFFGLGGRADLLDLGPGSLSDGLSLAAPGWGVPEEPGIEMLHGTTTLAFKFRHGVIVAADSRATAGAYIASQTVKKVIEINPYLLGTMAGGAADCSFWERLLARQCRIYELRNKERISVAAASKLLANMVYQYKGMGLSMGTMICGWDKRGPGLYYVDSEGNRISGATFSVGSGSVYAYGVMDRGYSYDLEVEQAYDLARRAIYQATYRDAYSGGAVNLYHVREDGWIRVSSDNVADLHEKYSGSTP
UniProt Q9H0K6: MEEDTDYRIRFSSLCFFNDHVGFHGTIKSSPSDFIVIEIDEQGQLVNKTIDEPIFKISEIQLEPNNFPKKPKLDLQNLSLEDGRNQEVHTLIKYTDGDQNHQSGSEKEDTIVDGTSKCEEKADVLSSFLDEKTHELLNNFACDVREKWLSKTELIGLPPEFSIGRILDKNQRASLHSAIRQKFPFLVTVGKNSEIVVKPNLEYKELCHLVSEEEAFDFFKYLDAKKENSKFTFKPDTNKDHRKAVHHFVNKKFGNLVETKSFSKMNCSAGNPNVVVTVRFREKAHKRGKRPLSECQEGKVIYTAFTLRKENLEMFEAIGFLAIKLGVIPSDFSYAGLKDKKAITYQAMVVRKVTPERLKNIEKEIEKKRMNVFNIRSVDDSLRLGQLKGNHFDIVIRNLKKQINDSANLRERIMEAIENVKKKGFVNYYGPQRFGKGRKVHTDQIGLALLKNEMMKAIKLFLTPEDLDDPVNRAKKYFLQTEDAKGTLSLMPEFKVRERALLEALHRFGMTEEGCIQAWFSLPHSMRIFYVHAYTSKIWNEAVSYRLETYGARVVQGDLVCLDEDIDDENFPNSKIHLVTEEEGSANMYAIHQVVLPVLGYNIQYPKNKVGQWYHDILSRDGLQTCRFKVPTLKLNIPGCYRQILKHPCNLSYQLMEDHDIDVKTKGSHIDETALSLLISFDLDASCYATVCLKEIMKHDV
UniProt Q6GMV3: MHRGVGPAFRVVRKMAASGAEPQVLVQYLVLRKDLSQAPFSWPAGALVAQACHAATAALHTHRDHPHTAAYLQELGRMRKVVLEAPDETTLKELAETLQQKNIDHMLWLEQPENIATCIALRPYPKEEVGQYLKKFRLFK
UniProt P41219, whole entry, looked up: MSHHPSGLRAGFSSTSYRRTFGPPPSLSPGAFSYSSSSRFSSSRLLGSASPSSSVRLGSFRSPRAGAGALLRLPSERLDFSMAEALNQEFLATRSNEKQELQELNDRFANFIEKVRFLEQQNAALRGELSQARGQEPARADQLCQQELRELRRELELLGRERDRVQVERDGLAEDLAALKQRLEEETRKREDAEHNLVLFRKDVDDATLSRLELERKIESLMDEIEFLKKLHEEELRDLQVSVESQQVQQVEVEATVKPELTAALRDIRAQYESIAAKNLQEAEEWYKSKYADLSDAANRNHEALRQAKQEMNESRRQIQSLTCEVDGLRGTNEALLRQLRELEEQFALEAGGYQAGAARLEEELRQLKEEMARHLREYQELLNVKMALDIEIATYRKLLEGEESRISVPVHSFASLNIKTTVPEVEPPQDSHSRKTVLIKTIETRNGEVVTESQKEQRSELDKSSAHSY
UniProt P17706: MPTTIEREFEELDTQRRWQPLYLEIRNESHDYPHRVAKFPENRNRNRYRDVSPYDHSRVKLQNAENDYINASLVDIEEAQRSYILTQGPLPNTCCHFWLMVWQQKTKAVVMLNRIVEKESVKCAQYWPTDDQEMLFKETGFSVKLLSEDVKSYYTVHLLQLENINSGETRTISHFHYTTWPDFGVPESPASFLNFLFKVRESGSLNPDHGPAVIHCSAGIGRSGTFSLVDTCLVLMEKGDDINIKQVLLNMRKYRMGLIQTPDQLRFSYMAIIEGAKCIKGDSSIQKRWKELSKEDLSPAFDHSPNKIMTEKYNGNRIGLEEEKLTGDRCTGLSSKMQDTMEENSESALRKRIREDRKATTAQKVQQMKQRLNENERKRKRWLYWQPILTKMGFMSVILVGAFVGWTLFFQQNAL
UniProt Q99460, whole entry, looked up: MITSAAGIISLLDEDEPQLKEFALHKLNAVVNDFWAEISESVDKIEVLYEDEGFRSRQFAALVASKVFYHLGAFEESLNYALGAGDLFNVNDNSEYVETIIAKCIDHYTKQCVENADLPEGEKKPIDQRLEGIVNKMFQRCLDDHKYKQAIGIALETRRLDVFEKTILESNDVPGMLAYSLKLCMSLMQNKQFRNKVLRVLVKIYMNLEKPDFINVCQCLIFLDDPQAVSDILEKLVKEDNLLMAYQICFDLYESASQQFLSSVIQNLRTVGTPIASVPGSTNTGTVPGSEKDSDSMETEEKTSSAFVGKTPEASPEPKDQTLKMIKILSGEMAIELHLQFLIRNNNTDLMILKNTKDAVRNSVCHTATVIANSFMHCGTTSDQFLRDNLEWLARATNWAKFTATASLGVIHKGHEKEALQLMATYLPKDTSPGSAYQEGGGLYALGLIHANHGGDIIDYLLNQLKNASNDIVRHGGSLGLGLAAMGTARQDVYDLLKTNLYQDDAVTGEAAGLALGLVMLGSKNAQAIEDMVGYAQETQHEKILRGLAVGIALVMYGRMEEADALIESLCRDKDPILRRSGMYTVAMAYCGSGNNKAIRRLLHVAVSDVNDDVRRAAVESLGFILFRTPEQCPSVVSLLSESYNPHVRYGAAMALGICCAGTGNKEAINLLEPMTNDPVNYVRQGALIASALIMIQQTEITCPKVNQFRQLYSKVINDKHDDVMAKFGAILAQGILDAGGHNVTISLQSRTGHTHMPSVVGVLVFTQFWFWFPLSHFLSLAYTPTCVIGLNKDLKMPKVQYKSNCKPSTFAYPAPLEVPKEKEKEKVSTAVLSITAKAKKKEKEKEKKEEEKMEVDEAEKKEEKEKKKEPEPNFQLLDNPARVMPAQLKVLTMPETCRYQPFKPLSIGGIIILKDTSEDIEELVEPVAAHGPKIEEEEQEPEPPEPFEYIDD

Assays:
Assay in all cases: log2 fold change, soluble protein after heating vs DMSO (PISA); higher = thermal stabilisation; K562 lysate, 10 uM; active = over 0.2 and 3.5 SD of the protein, either way, in both replicates (recomputed)
ibrutinib = compound: C=CC(=O)N1CCC[C@@H](n2nc(-c3ccc(Oc4ccccc4)cc3)c3c(N)ncnc32)C1 [ibrutinib]
In short: (§1)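 Thermal stability, expressed as log-two fold change relative to solvent controls, is given from duplicates. Crude K562 extract in PBS pH 7.4 with 1 mM MgCl2, at 1 mg/mL protein, was treated with 10 μM compound for 30 min and heated in aliquots for 3 min across 48°C-58°C. After pooling, adjustment to 0.5% NP-40 at 4°C and centrifugation at 21,000xg for 90 min, supernatant protein was measured by TMTpro 16plex LC-MS/MS with channel sums equalised.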

[1] = compound: CC(=O)c1cnc2ccc(-c3cc(Cl)c(O)c(Cl)c3)nc2c1N[C@H]1CC[C@H](CN(C)C)CC1
In short: as §1

ralimetinib = compound: CC(C)(C)Cn1c(N)nc2ccc(-c3[nH]c(C(C)(C)C)nc3-c3ccc(F)cc3)nc21 [ralimetinib]
In short: as §1

[2] = compound: CC(C)(O)CC(=O)NCCn1ccc2ncnc(Nc3ccc(Oc4cccc(C(F)(F)F)c4)c(Cl)c3)c21
In short: as §1

[3] = compound: CC(C)C1=C2N=C(C=C(N2N=C1)NCC3=CC=CC=C3)NCCCCCCN
In short: as §1

[4] = compound: CC1=C(C(CC(=O)N1)C2=CC=C(C=C2)C(F)(F)F)C(=O)NC3=C(C=C4C(=C3)C=NN4)F
In short: as §1

[5] = compound: CC1=C(C2=C(C=C1)C(=O)C3=CC=CC=C3N2CCCN)C
In short: as §1

[6] = compound: CC1=C(C=C(C=C1)NC(=O)C2=CC(=CC=C2)C(C)(C)C#N)NC3=CC4=C(C=C3)N=CN(C4=O)C
In short: as §1

[7] = compound: CC1=C(C=C(C=C1)NC(=O)C2=CC(=CC=C2)N(C)C)NC(=O)C3=CC=C(C=C3)O
In short: as §1

[8] = compound: CC1=CC=C(C=C1)SC2=C3C=C(SC3=CN=C2)C(=O)N
In short: as §1

Measured: log2 fold change

PTPN7 isoform 3 (UniProt P35236)
inactive: ibrutinib 0.018 | [1] 0.027 | ralimetinib 0.066 | [2] -0.021 | [3] -0.044 | [4] -0.023 | [5] -0.053 | [6] -0.07 | [7] 0.005 | [8] 0.032

PSMG3 (UniProt Q9BT73)
inactive: ibrutinib 0.059 | [1] -0.011 | ralimetinib -0.011 | [2] -0.06 | [3] -0.045 | [4] 0.033 | [5] -0.026 | [6] 0.042 | [7] 0.001 | [8] -0.007

PSMA5 (UniProt P28066)
inactive: ibrutinib -0.026 | [1] -0.019 | ralimetinib 0.003 | [2] -0.027 | [3] 0.009 | [4] -0.032 | [5] -0.024 | [6] 0.035 | [7] -0.003 | [8] -0.009

2 neighbouring entries already listed:
PSMG3 (UniProt Q9BT73)
inactive: ibrutinib 0.059 | [1] -0.011 | ralimetinib -0.011 | [2] -0.06 | [3] -0.045 | [4] 0.033 | [5] -0.026 | [6] 0.042 | [7] 0.001 | [8] -0.007

PSMA5 (UniProt P28066)
inactive: ibrutinib -0.026 | [1] -0.019 | ralimetinib 0.003 | [2] -0.027 | [3] 0.009 | [4] -0.032 | [5] -0.024 | [6] 0.035 | [7] -0.003 | [8] -0.009

The list goes on.

PTAR1 (UniProt Q7Z6K3)
inactive: ibrutinib 0.02 | [1] -0.012 | ralimetinib 0.004 | [2] -0.032 | [3] 0.002 | [4] -0.021 | [5] -0.01 | [6] 0.001 | [7] 0.023 | [8] -0.048

PSMD3 (UniProt O43242)
inactive: ibrutinib -0.017 | [1] -0.005 | ralimetinib 0.012 | [2] 0.02 | [3] 0.002 | [4] -0.017 | [5] -0.008 | [6] -0.015 | [7] -0.005 | [8] 0.024

PSME3 isoform 2 (UniProt P61289)
inactive: ibrutinib -0.03 | [1] 0.007 | ralimetinib -0.023 | [2] -0.019 | [3] -0.019 | [4] -0.013 | [5] 0.009 | [6] -0.018 | [7] -0.011 | [8] 0

PSMD8 (UniProt P48556)
inactive: ibrutinib 0.009 | [1] 0.031 | ralimetinib 0.019 | [2] -0.019 | [3] -0.028 | [4] 0.005 | [5] -0.027 | [6] 0.014 | [7] 0.029 | [8] 0.025

PTGR2 (UniProt Q8N8N7)
inactive: ibrutinib -0.006 | [1] 0.026 | ralimetinib 0.019 | [2] 0.068 | [3] -0.042 | [4] -0.011 | [5] -0.024 | [6] 0.006 | [7] 0.037 | [8] 0.029

PSME1 (UniProt Q06323)
inactive: ibrutinib 0.029 | [1] 0.019 | ralimetinib 0.016 | [2] 0.021 | [3] -0.016 | [4] -0.037 | [5] -0.01 | [6] -0.006 | [7] -0.015 | [8] 0.02

PSMD14 (UniProt O00487)
inactive: ibrutinib 0.007 | [1] -0.014 | ralimetinib -0.051 | [2] 0.001 | [3] 0.003 | [4] 0.005 | [5] -0.007 | [6] -0.027 | [7] -0.003 | [8] 0.017

PSMC3IP (UniProt Q9P2W1)
inactive: ibrutinib -0.041 | [1] 0.044 | ralimetinib 0.058 | [2] 0.015 | [3] -0.029 | [4] -0.014 | [5] -0.036 | [6] -0.029 | [7] 0.039 | [8] -0.027

PSMD10 (UniProt O75832)
inactive: ibrutinib -0.002 | [1] 0.005 | ralimetinib 0.007 | [2] -0.016 | [3] 0.028 | [4] -0.07 | [5] 0.025 | [6] 0.005 | [7] -0.012 | [8] 0.01

PSMD9 (UniProt O00233)
inactive: ibrutinib -0.031 | [1] 0.008 | ralimetinib -0.01 | [2] -0.011 | [3] 0.023 | [4] -0.022 | [5] -0.038 | [6] 0.044 | [7] -0.024 | [8] -0.04

PTS (UniProt Q03393)
inactive: ibrutinib 0.213 | [1] 0.015 | ralimetinib 0.021 | [2] -0.027 | [3] -0.041 | [4] -0.117 | [5] -0.102 | [6] 0.034 | [7] -0.013 | [8] -0.017

PSAP isoform 3 (UniProt P07602)
inactive: ibrutinib 0.048 | [1] -0.019 | ralimetinib -0.008 | [2] 0.029 | [3] 0.058 | [4] -0.003 | [5] 0.094 | [6] -0.077 | [7] -0.01 | [8] 0.042

PTBP1 (UniProt P26599)
inactive: ibrutinib 0.02 | [1] 0.006 | ralimetinib 0.007 | [2] -0.03 | [3] 0.006 | [4] 0.002 | [5] 0.016 | [6] 0.017 | [7] -0.026 | [8] 0.047

PSMD4 (UniProt P55036)
inactive: ibrutinib -0.024 | [1] 0.001 | ralimetinib -0.007 | [2] 0.002 | [3] 0.007 | [4] -0.026 | [5] -0.004 | [6] 0.018 | [7] 0.001 | [8] -0.003

PSMB5 (UniProt P28074)
inactive: ibrutinib -0.004 | [1] 0.007 | ralimetinib -0.002 | [2] -0.007 | [3] -0.015 | [4] -0.005 | [5] 0.018 | [6] 0.014 | [7] -0.033 | [8] 0

PUS7L (UniProt Q9H0K6)
inactive: ibrutinib 0.029 | [1] 0.007 | ralimetinib 0.005 | [2] -0.047 | [3] 0.011 | [4] 0.008 | [5] -0.02 | [6] -0.03 | [7] 0.008 | [8] 0.024

PTRHD1 (UniProt Q6GMV3)
inactive: ibrutinib 0.042 | [1] -0.101 | ralimetinib -0.007 | [2] -0.045 | [3] 0 | [4] -0.097 | [5] -0.107 | [6] 0.072 | [7] -0.005 | [8] 0.046

PRPH isoform 2 (UniProt P41219)
inactive: ibrutinib -0.099 | [1] 0.054 | ralimetinib 0.009 | [2] 0.067 | [3] 0.074 | [4] 0.002 | [5] 0.007 | [6] -0.064 | [7] 0.023 | [8] -0.011

PSTPIP2 (UniProt Q9H939)
inactive: ibrutinib -0.019 | [1] -0.037 | ralimetinib -0.024 | [2] 0.012 | [3] 0.001 | [4] -0.049 | [5] -0.037 | [6] 0.022 | [7] -0.001 | [8] -0.034

PSMD12 (UniProt O00232)
inactive: ibrutinib -0.001 | [1] 0 | ralimetinib 0.029 | [2] -0.01 | [3] 0.004 | [4] -0.012 | [5] -0.007 | [6] -0.019 | [7] 0.001 | [8] 0.026

PTPN2 (UniProt P17706)
inactive: ibrutinib 0.016 | [1] -0.014 | ralimetinib 0.014 | [2] -0.001 | [3] -0.029 | [4] -0.035 | [5] 0.045 | [6] -0.005 | [7] 0.017 | [8] 0.007

PSMD1 (UniProt Q99460)
inactive: ibrutinib -0.035 | [1] -0.007 | ralimetinib 0 | [2] -0.014 | [3] -0.013 | [4] -0.007 | [5] -0.012 | [6] 0.011 | [7] 0.021 | [8] 0.007

PRPSAP2 (UniProt O60256)
inactive: ibrutinib 0.021 | [1] 0.032 | ralimetinib 0.007 | [2] -0.014 | [3] 0.002 | [4] -0.009 | [5] -0.006 | [6] 0.004 | [7] -0.033 | [8] -0.004

PTDSS2 (UniProt Q9BVG9)
inactive: ibrutinib -0.018 | [1] 0.019 | ralimetinib 0.007 | [2] -0.075 | [3] -0.042 | [4] 0.025 | [5] 0.021 | [6] 0.013 | [7] -0.037 | [8] 0.003

PSMD11 (UniProt O00231)
inactive: ibrutinib 0.003 | [1] -0.001 | ralimetinib 0.008 | [2] -0.003 | [3] -0.005 | [4] -0.027 | [5] 0.026 | [6] -0.011 | [7] -0.004 | [8] 0.025

PSMB3 (UniProt P49720)
inactive: ibrutinib -0.008 | [1] 0.011 | ralimetinib 0.011 | [2] -0.026 | [3] 0 | [4] -0.014 | [5] -0.01 | [6] -0.007 | [7] 0.001 | [8] -0.006
